Experimental data taken from US9751875B2, “Quinine compounds, and optical isomers, preparation method and medical use thereof” (BEIJING FSWELCOME TECHNOLOGY DEVELOPMENT CO., LTD., priority 2013, dated 2017).
Some results were stated once for a whole list of compounds, not compound by compound.

Tested on: bronchus in guinea pigs (contractile response induced by Mch)
Test: Antagonism of contractile response of bronchus in guinea pigs induced by methacholine (Mch); airway resistance and pulmonary dynamic compliance
Format: in vivo, guinea pig
Settings: for inhibition ratio against the airway resistance: 5 μg/kg dropped in the airway; for action time: 10 μg/kg and 5 μg/kg administered by dropping in the airway; for inhibition ratio against the increase of airway resistance / inhibition ratio against the increase of airway resistance (maximum inhibition ratio): 10 μg/kg dropped in the airway; for inhibition ratio against the increase of airway resistance (maximum inhibition ratio): after 1 h
From the text: Determination of tidal volume, airway flow rate, and transpulmonary pressure: 1.5 g/kg of urethane was intraperitoneally injected to narcotize the guinea pig. The guinea pig was fixed supinely and treated with tracheal intubation, and the external jugular vein was separated and an indwelling needle was inserted; the guinea pig was enclosed into a body plethysmograph, a blunt needle for intubation into thoracic cavity was inserted between ribs 4˜5 of the prothorax of the guinea pig, and the intrathoracic pressure could be measured (with a negative value of a water column of a water manometer and a fluctuation with the breath of the guinea pig as marks). After stabilization, the values of the tidal volume, airway flow rate and transpulmonary pressure of the guinea pig prior to administration of Mch were recorded by a MedLab biological signal collection and processing system as base values. 10 μg/kg body weight of Mch was intravenously injected. The changes of the airway flow rate, tidal volume and transpulmonary pressure of the guinea pig within 5 minutes were observed. Calculation of Raw and Cdyn: the changes of the increased percentage of Raw value and the decreased percentage of Cdyn after […] of Mch were calculated.
Calculation formulas of Raw and Cdyn were respectively: […]
Dose-effect relationship: For each of the example compounds, 27 guinea pigs were randomly divided into […]: a solvent control group with […], a group with 1 μg/kg of the example compounds 4, 10, 14, and 26, a group with 3 μg/kg of the example compounds 4, 10, 14, and 26 and a group with 10 μg/kg of the example compounds 4, 10, 14, and 26; after 30 min from the dropping of the above concentration of drugs in the airway, 10 μg/kg body weight of Mch was intravenously injected for excitation, and airway resistance (Raw) and pulmonary dynamic compliance (Cdyn) within 5 min were determined. […]

Row | SMILES | inhibition ratio against the airway resistance (after 12 h) [%] | inhibition ratio against the airway resistance (after 24 h) [%] | action time | inhibition ratio against the increase of airway resistance (after 0.25 h) [%] | inhibition ratio against the increase of airway resistance (maximum inhibition ratio) [%] | inhibition ratio against the increase of airway resistance (after 24 h) [%]
1 | O[C@@](COC1C[N+]2(CCCOc3ccccc3)CCC1CC2)(c1ccccc1)C1CCCCC1.[Br-] (stereo partly drawn) [Example 10, (2R,3R)-3-[(2-cyclohexyl-2-hydroxyl-2-phenyl)ethoxyl]-1-(3-phenoxypropyl)-1-azabicyclo[2,2,2]octane bromide] | ≥ 85 | ≥ 65 | more than 24 h | ≥ 80 | ≥ 90 | ≥ 85
2 | OC(CO[C@H]1C[N+]2(CCCOc3ccccc3)CCC1CC2)(c1ccccc1)C1CCC1.[Br-] (stereo partly drawn) [Example 14, (2S,3S)-3-[(2-cyclobutyl-2-hydroxyl-2-phenyl)ethoxyl]-1-(3-phenoxypropyl)-1-azabicyclo[2,2,2]octane bromide] | ≥ 85 | ≥ 65 | more than 24 h | ≥ 80 | ≥ 90 | ≥ 85
3 | O[C@@](CO[C@@H]1C[N+]2(CCOc3ccccc3)CCC1CC2)(c1ccccc1)C1CCCC1.[Br-] [Example 26, (2R,3R)-3-[(2-cyclopentyl-2-hydroxyl-2-phenyl)ethoxyl]-1-(2-phenoxyethyl)-1-azabicyclo[2,2,2]octane bromide] | ≥ 85 | ≥ 65 | more than 24 h | ≥ 80 | ≥ 90 | ≥ 85
4 | OC(CO[C@@H]1C[N+]2(CCCOc3ccccc3)CCC1CC2)(c1ccccc1)C1CCCC1.[Br-] (stereo partly drawn) [Example 4, (2R,3R)-3-[(2-cyclopentyl-2-hydroxyl-2-phenyl)ethoxyl]-1-(3-phenoxypropyl)-1-azabicyclo[2,2,2]octane bromide] | ≥ 85 | ≥ 65 | more than 24 h | ≥ 80 | ≥ 90 | ≥ 85
